Experimental data published in US20250049819A1, “METHODS FOR TREATING AND PREVENTING C. DIFFICILE INFECTION” (Paratek Pharmaceuticals, Inc., priority 2016, published 2025).
At least one structure is not confirmed: it was looked up by name or label, or the drawing left a doubt.

Columns and labels:
[1] = system: C. difficile strains (N = 27); assay: MIC by agar dilution against C. difficile clinical isolates; assay type: cell-based; conditions: 27 isolates
Procedure: The activity of omadacycline was tested in vitro against 27 clinical isolates of C. difficile. […] The experiments were carried out using broth and agar microdilution methods according to Clinical and Laboratory Standards Institute (CLSI) guidelines. […] Each test was run in duplicate.

[2] = system: C. difficile and gut microbiota; conditions: Saxton et al. 2009; to below the limits of detection; cited from earlier work

SMILES: CCC[C@@H]1C[C@@H](C(=O)N[C@@H]([C@H]2O[C@H](SC)[C@H](O)[C@@H](O)[C@H]2O)[C@H](C)Cl)N(C)C1 [Clindamycin]
- Agar Microdilution Range (Minimum Inhibitory Concentration) [1]: 0.12->16

SMILES: COc1c(N2C[C@@H]3CCCN[C@@H]3C2)c(F)cc2c(=O)c(C(=O)O)cn(C3CC3)c12 [Moxifloxacin]
- decline in Bacteroides spp. [2]: 6 log10 cfu/mL
- decline in Enterococci [2]: 4 log10 cfu/mL
- decline in lactose fermenting Enterobacteriaceae [2]: 6 log10 cfu/mL
